Data taken from US20260000642A1 (Tay Therapeutics Limited, priority 2022, published 2026).
For at least one compound, name, drawing or mass did not settle the structure.

Columns and labels:
[1] = system: collagen-induced arthritis in Lewis rats; experiment: Collagen-induced arthritis (CIA) model in rats: body weight, paw volume, clinical scores, clinical observations; settings: for animals showing signs of disease (of 8): daily P.O.
[2] = system: collagen-induced arthritis in Lewis rats; experiment: CIA model: histopathologic analysis of H&E-stained hind limbs; type: in vivo, Lewis rat; settings: daily P.O. for 21 days

## C[C@@H]1C[C@H]2[C@@H]3CCC4=CC(=O)C=C[C@]4(C)[C@@]3(F)[C@@H](O)C[C@]2(C)[C@@]1(O)C(=O)CO [dexamethasone]
[1]; daily P.O. for 21 days, around day 18
  average overall clinical score at plateau: never exhibited any signs of disease
[1]; day 12
  animals showing signs of disease (of 8): No animals
[1]; whole 21-day study
  animals showing signs of disease (of 8): No animals
[2]
  pathologic observations after microscopic evaluation (overall): No pathologic observations
